Results on two substances are retold here after article PMC4197704.

Sequences of proteins named here, by UniProt entry; tags and fusion partners are left off.
UniProt P63168: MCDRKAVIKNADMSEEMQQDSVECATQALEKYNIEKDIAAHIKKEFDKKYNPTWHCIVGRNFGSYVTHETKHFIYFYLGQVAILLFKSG
UniProt Q96EX3: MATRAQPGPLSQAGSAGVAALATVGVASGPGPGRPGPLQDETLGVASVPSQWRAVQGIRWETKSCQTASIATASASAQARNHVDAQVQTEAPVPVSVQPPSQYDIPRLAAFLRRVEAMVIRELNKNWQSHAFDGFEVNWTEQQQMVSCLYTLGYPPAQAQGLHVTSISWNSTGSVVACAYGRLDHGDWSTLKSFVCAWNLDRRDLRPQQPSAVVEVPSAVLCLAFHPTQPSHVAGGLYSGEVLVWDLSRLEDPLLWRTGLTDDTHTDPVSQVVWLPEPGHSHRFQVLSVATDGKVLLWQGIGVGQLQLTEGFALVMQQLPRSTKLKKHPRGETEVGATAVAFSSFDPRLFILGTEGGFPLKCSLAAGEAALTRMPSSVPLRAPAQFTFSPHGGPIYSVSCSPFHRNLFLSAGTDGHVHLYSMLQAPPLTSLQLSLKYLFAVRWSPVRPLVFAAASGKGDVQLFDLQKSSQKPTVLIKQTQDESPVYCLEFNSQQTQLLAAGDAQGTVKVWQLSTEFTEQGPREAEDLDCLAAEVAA

Results are given in words; binding and its absence hold for the method and conditions named. Binding seen in cells or lysates may run through a third protein. Some entries that bind do so weakly or less than the wild type.

For one assay, the target named is myc-DYNLL1 (mouse) (UniProt P63168). The assay is described as follows: co-IP; HEK-293T cells co-transfected with WDR34-GFP and myc-DYNLL1 or myc-DYNLL2; lysed in RIPA buffer with protease inhibitors; 0.4 mg pre-cleared lysate per IP, 1 ug anti-GFP or anti-Myc antibody on Protein G Sepharose; blot for the other tag.
A further assay has as its target WDR34-GFP (human) (UniProt Q96EX3). The assay is described as above.

WDR34-GFP (from UniProt Q96EX3 1-536): the binding entry with myc-DYNLL1 (mouse) is listed as “binds”.

Turning to myc-DYNLL1 (from UniProt P63168 1-89), the binding result in the assay with WDR34-GFP (human) is listed as “binds”.
